Experimental data: publication PMC7564595
Results are given in words; binding and its absence hold for the method and conditions named. In cells and extracts the contact can be indirect. Binding can be weak; no strength is given. Sequences can lack the tags named with a protein. Values belong to the molecule of their own block, whether it stands above or below them.

By UniProt entry, the sequences of proteins in these tests, tags left out. Where a name states a change or a piece, a line headed by the entry shows the natural chain unless it says otherwise.
UniProt P23258: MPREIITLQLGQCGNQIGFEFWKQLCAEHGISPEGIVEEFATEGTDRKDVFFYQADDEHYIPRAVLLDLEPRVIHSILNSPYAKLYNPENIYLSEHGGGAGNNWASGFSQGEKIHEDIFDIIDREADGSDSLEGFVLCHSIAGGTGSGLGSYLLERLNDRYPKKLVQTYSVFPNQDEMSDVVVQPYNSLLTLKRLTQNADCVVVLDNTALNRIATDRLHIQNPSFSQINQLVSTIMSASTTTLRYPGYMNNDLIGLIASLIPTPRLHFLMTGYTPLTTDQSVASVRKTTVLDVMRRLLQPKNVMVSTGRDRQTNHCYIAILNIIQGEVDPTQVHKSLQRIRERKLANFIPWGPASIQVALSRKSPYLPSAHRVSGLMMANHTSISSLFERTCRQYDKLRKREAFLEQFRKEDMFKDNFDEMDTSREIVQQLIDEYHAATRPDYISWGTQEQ

How the values were obtained:
SIRT4-eGFP (human) = molecular target: T1, SIRT4-eGFP (human) (UniProt Q9Y6E7); experiment: co-IP; anti-eGFP nanobody co-immunoprecipitation from total cell lysates (0.3% CHAPS lysis buffer) of mitotically synchronized HEK293 cells expressing SIRT4-eGFP or eGFP; immunoblot
T1 sequence: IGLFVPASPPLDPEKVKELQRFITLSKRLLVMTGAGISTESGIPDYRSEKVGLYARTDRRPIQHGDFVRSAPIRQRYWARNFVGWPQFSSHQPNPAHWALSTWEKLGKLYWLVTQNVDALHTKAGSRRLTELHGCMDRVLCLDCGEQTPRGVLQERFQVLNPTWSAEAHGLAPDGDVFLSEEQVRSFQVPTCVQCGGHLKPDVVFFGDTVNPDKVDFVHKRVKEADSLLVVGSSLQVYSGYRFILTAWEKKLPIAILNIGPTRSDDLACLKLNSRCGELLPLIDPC

[1] = molecular target: α-tubulin (human (endogenous in HEK293)); experiment: co-IP; immunoprecipitation with rabbit anti-α-tubulin antibody (ab52899) and Protein A/G Sepharose from total cell lysates (0.3% CHAPS) of stably transfected HEK293 cells; control without antibody
[2] = molecular target: Taxol-stabilized microtubules (human (endogenous in HEK293)); experiment: co-sedimentation; Taxol-stabilized microtubules (1 mM GTP, 20 µM Paclitaxel, 30 min at room temperature) pelleted from the cytosolic fraction of asynchronously growing HEK293 cells through 15% sucrose in PHEM buffer pH 6.8; immunoblot of supernatant and pellet

Molecule: β-tubulin (human (endogenous in HEK293))
binding (SIRT4-eGFP (human)): binds

Molecule: α-tubulin (human (endogenous in HEK293))
binding (SIRT4-eGFP (human)): binds

Second part, the molecule after the results:

binding (SIRT4-eGFP (human)): binds
Molecule: γ-tubulin (from UniProt P23258)

binding [1]: binds | binding [2]: binds
B1: SIRT4-eGFP (protein, UniProt Q9Y6E7 29-314)
chain: T1 sequence
